{
  "source": "patent US11207331B2",
  "about": "“Agents, compositions and methods for enhancing neurological function” (University of Southern California, priority 2007, dated 2021)",
  "system": "human neural progenitor cells (hNPC)",
  "test": "Proliferation and phenotype of human neural progenitor cells (hNPC)",
  "type": "cell-based",
  "conditions": "GABAAR antagonist with THP",
  "experimental": "To determine the impact of THP on hNPC cell proliferation, a dose response (pM-nM) experiment was performed. Results of these analyses indicate:\nTo determine the impact of THP on the stability of hNPC phenotype, hNPCs were double labeled with BrdU, Tuj1 and MAP2, or GFAP.\nTo determine whether the same mechanisms of THP-induced proliferation in rodent derived NPCs could be generalized to humans, we determined the requirement of the GABAAR by antagonizing the GABAAR with bicuculline followed by assessment of THP-induced hNPC cell proliferation.",
  "note": "At least one compound was matched to its structure with a doubt left.",
  "data": [
    {"smiles": "CN1CCc2cc3c(cc2[C@H]1[C@@H]1OC(=O)c2c1ccc1c2OCO1)OCO3", "note": "[Bicuculline, bicuculline, reference compound]", "values": [
      {"measurement": "antagonism of THP-induced hNPC proliferation", "result": "completely antagonized"}
    ]}
  ]
}
